The target in assay [1] is T1, AtTT8 MYB-interaction region (aa1-204) (Arabidopsis) (UniProt Q9FT81).
T1 sequence: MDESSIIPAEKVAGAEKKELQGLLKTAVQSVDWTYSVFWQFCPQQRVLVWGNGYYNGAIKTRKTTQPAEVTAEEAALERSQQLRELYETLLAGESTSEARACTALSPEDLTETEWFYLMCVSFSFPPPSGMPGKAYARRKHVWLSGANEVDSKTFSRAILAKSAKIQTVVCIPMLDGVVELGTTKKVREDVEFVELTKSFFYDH
In words: two-hybrid; Matchmaker Gold Y2H System (Clontech); pGADT7 (AD) SsMYB3 fusion co-transformed with pGBKT7 (BD) fusions into S. cerevisiae Y2HGold; selection on SD-Leu-Trp, then growth on SD-Ade-His-Leu-Trp.

In the next assay the target is T2, AtTTG1 (Arabidopsis) (UniProt Q9XGN1).
T2 sequence: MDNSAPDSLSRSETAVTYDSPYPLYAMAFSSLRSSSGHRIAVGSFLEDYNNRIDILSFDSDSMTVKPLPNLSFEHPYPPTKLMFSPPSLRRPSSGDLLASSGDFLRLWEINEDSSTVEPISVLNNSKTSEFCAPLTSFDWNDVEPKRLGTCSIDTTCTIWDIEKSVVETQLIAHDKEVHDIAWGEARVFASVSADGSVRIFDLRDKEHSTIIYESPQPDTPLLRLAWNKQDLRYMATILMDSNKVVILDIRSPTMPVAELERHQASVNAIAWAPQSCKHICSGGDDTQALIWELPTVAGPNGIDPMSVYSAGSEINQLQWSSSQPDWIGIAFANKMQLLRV
The assay is described as above.

Results are given in words; binding and its absence hold for the method and conditions named. Binding calls can cover weak binding; strength is not graded here.

This passage reports binding results from article PMC4598174.

In the case of SsMYB3 (from UniProt A5A383), the binding entry (in assay [1]; with AtTTG1 (Arabidopsis)) was “binds” throughout.
